Data reported in PMC11335273.
No constants are given. Whether binding was seen depends on the method and setting. Binding seen in cells or lysates may run through a third protein. Some entries that bind do so weakly or less than the wild type.

Sequences of proteins named here, by UniProt entry; tags and fusion partners are left off.
UniProt P78347: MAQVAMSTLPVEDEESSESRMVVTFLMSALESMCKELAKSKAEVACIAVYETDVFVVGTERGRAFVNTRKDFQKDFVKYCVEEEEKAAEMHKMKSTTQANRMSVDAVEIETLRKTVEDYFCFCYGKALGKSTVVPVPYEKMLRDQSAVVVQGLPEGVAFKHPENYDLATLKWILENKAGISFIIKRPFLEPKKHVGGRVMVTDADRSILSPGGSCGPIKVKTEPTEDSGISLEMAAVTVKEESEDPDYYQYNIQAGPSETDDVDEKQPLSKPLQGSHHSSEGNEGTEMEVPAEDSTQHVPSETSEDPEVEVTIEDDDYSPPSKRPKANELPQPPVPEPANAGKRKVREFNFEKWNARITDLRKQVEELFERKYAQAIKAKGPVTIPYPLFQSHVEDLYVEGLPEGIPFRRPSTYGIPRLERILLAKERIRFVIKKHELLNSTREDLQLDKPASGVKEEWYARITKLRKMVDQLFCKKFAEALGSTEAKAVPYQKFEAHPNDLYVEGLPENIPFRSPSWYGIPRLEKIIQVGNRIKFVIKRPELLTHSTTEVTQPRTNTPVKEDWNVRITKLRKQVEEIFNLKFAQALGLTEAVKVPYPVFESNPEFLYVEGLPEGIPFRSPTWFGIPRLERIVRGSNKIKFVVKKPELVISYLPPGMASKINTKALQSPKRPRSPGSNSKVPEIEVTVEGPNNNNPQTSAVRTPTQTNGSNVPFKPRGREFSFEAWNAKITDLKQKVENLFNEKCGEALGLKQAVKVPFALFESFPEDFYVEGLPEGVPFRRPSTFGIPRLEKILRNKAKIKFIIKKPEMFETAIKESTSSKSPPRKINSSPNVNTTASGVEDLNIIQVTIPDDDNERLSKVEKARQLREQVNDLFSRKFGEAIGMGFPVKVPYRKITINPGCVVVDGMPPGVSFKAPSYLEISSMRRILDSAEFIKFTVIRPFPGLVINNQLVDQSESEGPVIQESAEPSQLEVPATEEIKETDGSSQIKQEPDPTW

Target: GTF2I-FLAG (human) (UniProt P78347)
Assay: co-IP; FLAG pulldown assay trials: GTF2I-FLAG precipitated by its FLAG tag, endogenous GTF2I found with it; conditions of the trials not told

binding: binds
Substance: endogenous GTF2I (from UniProt P78347 1-998)
